The labels stand for the following.
T1: Kelch protein K13 (P. falciparum (endogenous in Cam3.II and CamWT parasites)) (UniProt Q8IDQ2)
T1 sequence: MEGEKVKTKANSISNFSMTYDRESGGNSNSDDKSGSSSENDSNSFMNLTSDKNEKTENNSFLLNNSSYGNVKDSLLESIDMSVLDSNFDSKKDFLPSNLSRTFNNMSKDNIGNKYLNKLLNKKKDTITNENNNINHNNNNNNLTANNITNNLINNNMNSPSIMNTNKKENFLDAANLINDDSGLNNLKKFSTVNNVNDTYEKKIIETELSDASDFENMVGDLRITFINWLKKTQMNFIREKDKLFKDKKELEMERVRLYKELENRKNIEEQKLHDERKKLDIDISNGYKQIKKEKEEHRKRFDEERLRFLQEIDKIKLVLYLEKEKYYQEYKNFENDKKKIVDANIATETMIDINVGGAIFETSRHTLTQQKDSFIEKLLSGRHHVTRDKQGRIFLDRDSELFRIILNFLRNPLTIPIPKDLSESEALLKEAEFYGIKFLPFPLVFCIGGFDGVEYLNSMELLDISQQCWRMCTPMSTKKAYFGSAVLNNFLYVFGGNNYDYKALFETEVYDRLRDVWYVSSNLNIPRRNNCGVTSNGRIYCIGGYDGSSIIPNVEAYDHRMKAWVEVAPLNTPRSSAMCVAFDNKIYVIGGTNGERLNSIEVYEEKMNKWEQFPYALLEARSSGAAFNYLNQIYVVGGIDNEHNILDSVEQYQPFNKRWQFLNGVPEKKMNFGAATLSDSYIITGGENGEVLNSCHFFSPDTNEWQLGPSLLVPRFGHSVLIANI

B1: Ornithine aminotransferase (protein, UniProt Q6LFH8 1-414)
chain: MDFVKELKSSQDYMNNELTYGAHNYDPIPVVLKRGKGVFVYDIEDRRYYDFLSAYSSVNQGHCHPDILNAMINQAKKLTICSRAFFSDSLGVCERYLTNLFGYDKVLMMNTGAEASETAYKLCRKWGYEVKKIPENSAKIIVCNNNFSGRTLGCVSASTDKKCKNNFGPFVPNFLKVPYDDLEALEKELQDPNVCAFIVEPVQGEAGVIVPSDSYFPGVASLCKKYNVLFVADEVQTGLGRTGKLLCTHHYGVKPDVILLGKALSGGHYPISAILANDDVMLVLKPGEHGSTYGGNPLAAAICVEALKVLINEKLCENADKLGAPFLQNLKEQLKDSKVVREVRGKGLLCAIEFKNDLVNVWDICLKFKENGLITRSVHDKTVRLTPPLCITKEQLDECTEIIVKTVKFFDDNL
B2: Pyruvate kinase (protein, UniProt C6KTA4 1-511)
chain: MSSFKYKNSAAGASMQSAANITLRQILEPNNVNLRSKKTHIVCTLGPACKSVETLVKLIDAGMDICRFNFSHGSHEDHKEMFNNVLKAQELRPNCLLGMLLDTKGPEIRTGFLKNKEVHLKEGSKLKLVTDYEFLGDETCIACSYKKLPQSVKPGNIILIADGSVSCKVLETHEDHVITEVLNSAVIGERKNMNLPNVKVDLPIISEKDKNDILNFAIPMGCNFIAASFIQSADDVRLIRNLLGPRGRHIKIIPKIENIEGIIHFDKILAESDGIMIARGDLGMEISPEKVFLAQKLMISKCNLQGKPIITATQMLESMTKNPRPTRAEVTDVANAVLDGTDCVMLSGETAGGKFPVEAVTIMSKICLEAEACIDYKLLYQSLVNAIETPISVQEAVARSAVETAESIQASLIIALTETGYTARLIAKYKPSCTILALSASDSTVKCLNVHRGVTCIKVGSFQGTDIVIRNAIEIAKQRNMAKVGDSVIAIHGIKEEVSGGTNLMKVVQIE
B3: Phosphoglycerate kinase (protein, UniProt P27362 1-416)
chain: MLGNKLSISDLKDIKNKKVLVRVDFNVPIENGIIKDTNRITATLPTINHLKKEGASKIILISHCGRPDGLRNEKYTLKPVAETLKGLLGEEVLFLNDCVGKEVEDKINAAKENSVILLENLRFHIEEEGKGVDANGNKVKANKEDVEKFQNDLTKLADVFINDAFGTAHRAHSSMVGVKLNVKASGFLMKKELEYFSKALENPQRPLLAILGGAKVSDKIQLIKNLLDKVDRMIIGGGMAYTFKKVLNNMKIGTSLFDEAGSKIVGEIMEKAKAKNVQIFLPVDFKIADNFDNNANTKFVTDEEGIPDNWMGLDAGPKSIENYKDVILTSKTVIWNGPQGVFEMPNFAKGSIECLNLVVEVTKKGAITIVGGGDTASLVEQQNKKNEISHVSTGGGASLELLEGKELPGVLALSNK
B4: SEY1 (protein, UniProt Q8ILT5 1-937)
chain: MEKGVEKTQIIDYDGNVIEDLKEWMIDNKLNDLGFSYNVIAVLGSQSSGKSTLLNNLFKTSFDVMNTKQGHSQTTKGLWLSYDKFDDETNNSSSFFKLKKKNKPTLILDVEGTDSKERGDNRLTFEHRSALFCLALADCVIVNLWYHSLGNFTASNYGLLKTVMEVNLELFQQEKNSPKTILLFTVRDWFEEFAPIEVVRNKILDEYINKIWKEMKKPKEAEKLNINNFFIIEVVGLSHGIIKKEDFLKDVNNLRDKWINNLRPSKYSRNIPSDGFAQYCNNIWNTIVKQSQLDIPSQKEMLSTFRCQEIKNNVINNINKEIKEKSIESHNKVIENFKEWAEKNIIQKCLDDYFKDASRYKENICLRTSQELLDYLFTQLQAIVDNNLQYIQRTLCTKFFNELSNMYKICTIEKNTFSFSRDSNLKTVKDNNKNTSHEDIKRDLLNNNQDKCVHLWSNFLYNADKLEYFTFCNFYENYEKSNIEIKTNMKNDDNLKNDDNLKNDAHNNITTHQFNYKPTLSVLSTSIYKDSNRIRNIQCGILLNKTRQTIKNSFKNMDTYLLTTKNTEEYWNNTVQLVLKLQDNINTHLTKCFINLKGTNHNNLNIYNDDMMYNNDDMVFNNNDDDDNNNNNNNNNYYYYNKNDDANLSKDENYNNKFSFSLTNEKGIFQNINNNNEGSDEICYTNALKKIDLIKNKQVYKSTINEDINNKLQNKKYIHELKNYYLDEIMDVLKNKLDEISENLATIIIQRFESVFNYDEYEQPRQWRDISMAELKKIFLKSKNYAFLIIDILQKNIKVELIDDYLPNNFIKDEIIEKGKIKAKRRIQEICRDAQYIQETGSKMSLKNVPVVFWIILLLFGWNEILFFIRMFFKLNVILPLFFAAAFIVSTFVYNGNTQALSYINKIIFYMAKNSYNFFKHIQAISNPPPKNVQKQE
B5: Phosphoglycerate mutase 1, putative (protein, UniProt Q8IIG6 1-250)
chain: MTTYTLVLLRHGESTWNKENKFTGWTDVPLSEKGEEEAIAAGKYLKEKNFKFDVVYTSVLKRAICTAWNVLKTADLLHVPVVKTWRLNERHYGSLQGLNKSETAKKYGEEQVKIWRRSYDIPPPKLDKEDNRWPGHNVVYKNVPKDALPFTECLKDTVERVLPFWFDHIAPDILANKKVMVAAHGNSLRGLVKHLDNLSEADVLELNIPTGVPLVYELDENLKPIKHYYLLDSEELKKKMDEVANQGKAK
B6: Thioredoxin peroxidase 2 (protein, UniProt Q8I5Q6 20-216)
chain: SLVTKKAYNFTAQGLNKNNEIINVDLSSFIGQKYCCLLFYPLNYTFVCPTEIIEFNKHIKDFENKNVELLGISVDSVYSHLAWKNMPIEKGGIGNVEFTLVSDINKDISKNYNVLYDNSFALRGLFIIDKNGCVRHQTVNDLPIGRNVQEVLRTIDSIIHVDTSGEVCPINWKKGQKAFKPTTESLIDYMNNANKNV
B7: Inositol-3-phosphate synthase (protein, UniProt Q8I3Y8 1-604)
chain: METYKGIQFFSNKGTVKNAFKKSNLGYEVMLDRKEDENFIYSNYEHVETQVEKDSKGMVVCKKYKNTYEILVEKVKEKRLGVLLVGIGGNNATTMLGGICANAKDLSYMNKCDLKRSNYLGSVFLSSNIRLGYNEKDKEHAYAPIYKLIDIYNPENIVYGGWDINNMNLKDCLVRNKVFDNEVIEKIKDDLDYVPLKSVYFKGNFIAGNQQRRVNNILYGKNKLEILEQVREQIRNFKKQNNLNELIVLWSGNTEKNIPHIPGVNDTFLNILHACKKNHESVSPSVIYALAAILENSPFINSSPQNTLVSAVVQLAQQKGIFIIGNDLKTGQTKIKNFLLDFYFGTGLKPKSIVSYNHLGNNDGKNLSSDLQFYSKKVSKSNLICDYVRANENLYVDDEKDTNVLVKKSIDYCEGDSLNEKGKVSADIEDDCTYVESLEKQKVNSEIVIKYVPYVGDDKKAIDEYISEIFMNGKNTIVLYNICQDSMLASPILIDLILLVELSQRVFFKPNQEKKTNEDEHLLNENIQIEDYKLSHTILKPKYSSFKNLDSVLFLSSLFCKSPFNSTVYKTRHSFFSQLESLWNFVRIISGLPIDAHIDLPYMI
B8: Pyruvate kinase 2 (protein, UniProt Q8IJ37 1-745)
chain: MNLIHICLFIIVIKCYVNCIKKNNKHIAYDKFYKQGSNTIVGSGNGSGDLLFLNNININKNVERKKNILAHSEIGTVRNIDDINLLNHNKKNEISFTKCKQIATIGPASENFEQLEKLYLNGIDVFRLNFSHGLKSIKKYIINSIRILEKKYDTTIGILGDIQGPKIRIGEFEKNQINENDNNTFVELKEGDLFSFDLMNSLGNQNRVQLNYPELIKNAKAGQIILLDDGNLKMKILENNYDTSNIQNSYIKVQVLTGGKLYSKKGFCIPNMIMPIDVLSEKDIKDILFCINEEVDFLGYSFVQTEYDLIFLRNIINDYYESDFYNNIKRKDRINFDQNNLQMKTFDDENDFYIKEVNDYYNNYYLKNVQKYKQIYDVYKNQDLYINDNIQNHYNKNIVTNIGDDKNIIDEQHIHNNNNNNIDNIMKNYSNLYNINKDHNKIAIISKIEKPSAIKNIENIIKLSDGIMIARGDLGIETNLSNLPILQKKLINLCRIKYNKPVIVATQMMESMRFLPSPTRAEVTDVATALYDGSDCVMLSAETATGQYPILTVSTQNKIIKDVENDYYYYEYTQRKNDKLKMLDHKNNCCHENKDIQQINKYNHEYIQNNKYEQDIQNNISYFDKLIFSIRDISNNINLKSIILFSNEFNKIQKLSNLRTKAPIIVITENKYLARKLQLTWGIYPHLSKKQNLFNHDLFSLINYGCDVSKKEGFVNSPDEYSLVTFSKNINSANLLYLCQPCLTN
B9: Hexokinase (protein, UniProt Q02155 1-493)
chain: MSEYDIAKNDVTYTKLDTIECDIPINEELSWRINKFVNQLRISYSTLEEFVDNFVYELKKGLEAHRKHPNLWIPHECSFKMLDSCIANIPTGQEKGTYYAIDFGGTNFRAVRASLDGKGKIKRDQETYSLKFTGSYSHEKGLLDKHATASQLFDHFAERIKYIMGEFNDLDNKEVKSVGFTFSFPCTSPSINCSILIDWTKGFETGRATNDPVEGRDVCKLMNDAFVRAAIPAKVCCVLNDAVGTLMSCAYQKGRGTPPCYIGIILGTGSNGCYYEPEWKKYKYAGKIINIEFGNFDKDLPTSPIDLVMDWYSANRSRQLFEKMISGAYLGEIVRRFMVNVLQSACSKKMWISDSFNSESGSVVLNDTSKNFEDSRKVAKAAWDMDFTDEQIYVLRKICEAVYNRSAALARGTIAAIAKRIKIIEHSKFTCGVDGSLFVKNAWYCKRLQEHLKVILADKAENLIIIPADDGSGKGAAITAAVIALNADIPQLP
B10: Receptor for activated c kinase (protein, UniProt Q8IBA0 1-323)
chain: MMDNIKEAEISLRGVLEGGHSDWVTSVSTPTDPKLKTIVSASRDKKLIVWNINTDDDSGEIGTAKKSLTGHSQAINDVSISSDGLFALSGSWDHSVRLWDLSLGETIRSFIGHTSDVFSVSFSPDNRQIVSASRDKTIKLWNTLAQCKYTITDQQHTDWITCVRFSPSPNQAIIVSCGWDKLVKVWNLKNCDLNKNLEGHTGVLNTVTISPDGSLCASGGKDGVAKLWDVKEGKHLYSLETGSTINSLCFSPCDYWLCAATDRFIRIWNLESKLIISEIYPVKQSKIGVPWCTSLTWSANGQLLYCGSTDGNIYVYEVKKHSV

This is an account of results in publication PMC7192513.

These are yes or no findings as the source states them, for the method shown. Binding seen in cells or lysates may run through a third protein. A yes stands for co-enrichment or nearness to the bait. Other partners may have been found.

For this experiment, the target named is T1, Kelch protein K13 (P. falciparum (endogenous in Cam3.II and CamWT parasites)). Nature of the experiment: affinity purification with mass spectrometry; co-IP with a mix of the K13 mAbs E3 and D9 (2.5 ug each) coupled to Pierce Direct IP columns; 500 ug parasite lysate in Pierce IP Lysis Buffer; cultures enriched in 0-12 hpi rings of Cam3.II (K13 WT, C580Y, R539T) and CamWT (WT, C580Y); eluates by LC-MS/MS; 6 experiments, 13 test samples, 10 negative controls.
Regarding B1, the binding result was “binds”.

B2: the binding result is recorded as “binds”. In the case of B3, the binding result is “binds”.

For the molecule B4, the binding entry is “binds”.

On to B5, for which the binding result is “binds”. On to B6, for which the binding entry is reported as “binds”. For B7, the binding entry is on record as “binds”.

Turning to B8, the binding entry is listed as “binds”. As to B9, the binding entry is reported as “binds”.

Consider B10, for which the binding result is “binds”.
